Only a part is listed here, and it is no random draw. For part of these data: At the low end of the ranking the order means little.

By UniProt entry, the sequences of proteins in these tests, tags left out. Where a name states a change or a piece, a line headed by the entry shows the natural chain unless it says otherwise.
UniProt P41161: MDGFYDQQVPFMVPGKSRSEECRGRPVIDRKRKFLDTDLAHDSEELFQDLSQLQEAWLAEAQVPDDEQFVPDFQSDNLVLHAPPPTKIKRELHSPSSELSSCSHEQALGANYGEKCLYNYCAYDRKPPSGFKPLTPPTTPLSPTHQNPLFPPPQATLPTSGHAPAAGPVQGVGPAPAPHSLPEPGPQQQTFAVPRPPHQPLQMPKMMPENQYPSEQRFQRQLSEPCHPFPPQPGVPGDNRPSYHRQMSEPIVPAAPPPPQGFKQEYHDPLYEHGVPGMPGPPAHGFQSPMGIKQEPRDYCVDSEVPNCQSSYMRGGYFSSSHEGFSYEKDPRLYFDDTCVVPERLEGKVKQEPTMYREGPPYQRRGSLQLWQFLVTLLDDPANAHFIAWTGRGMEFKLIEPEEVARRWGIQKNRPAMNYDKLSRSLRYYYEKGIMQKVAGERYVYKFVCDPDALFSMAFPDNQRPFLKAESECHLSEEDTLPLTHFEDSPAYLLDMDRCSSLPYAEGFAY

The first experiment has as its target T1, FLI1 (UniProt Q01543).
T1 sequence: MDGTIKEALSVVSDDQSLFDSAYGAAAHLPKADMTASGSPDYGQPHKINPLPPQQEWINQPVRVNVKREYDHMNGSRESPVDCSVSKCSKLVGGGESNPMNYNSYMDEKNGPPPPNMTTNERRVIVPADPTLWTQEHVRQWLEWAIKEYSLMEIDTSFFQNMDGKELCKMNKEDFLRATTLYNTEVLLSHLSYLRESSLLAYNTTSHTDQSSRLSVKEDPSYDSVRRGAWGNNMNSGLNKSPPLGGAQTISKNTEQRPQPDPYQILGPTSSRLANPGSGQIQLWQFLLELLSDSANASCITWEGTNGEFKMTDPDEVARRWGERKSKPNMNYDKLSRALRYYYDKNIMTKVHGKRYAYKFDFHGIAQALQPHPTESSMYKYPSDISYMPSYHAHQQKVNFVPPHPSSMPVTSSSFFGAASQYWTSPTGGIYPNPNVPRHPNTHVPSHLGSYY
Nature of the experiment: DAPPL (digital affinity profiling via proximity ligation, sequencing). The conditions noted are these: 10 mM Tris-HCl pH 7.5, 50 mM NaCl, 1 mM DTT, 4% glycerol, room temperature, 30 min; GST-TFs on glutathione beads, 16-mer random dsDNA library, 0.1% …; high values mean tight binding; double strand, one strand shown; scale: fold enrichment (6-mer frequency, TF over GST control).
GCCCTA displayed a binding signal of 1.29.

In the case of TTCCGA, the binding signal worked out at 1.64.

Regarding CCCCGA, the binding signal was found to be 1.23.

As for CTGATG, the binding signal was determined as 1.75.

For TGATAT, the binding signal stood at 1.13.

CTCTAC returned a binding signal of 1.51.

CTCGGT displayed a binding signal of 1.12.

For GCACAA, the binding signal stood at 1.1.

Sequence TACTGT returned a binding signal of 1.15.

Turning to CTGTCT, the binding signal is 1.35.

On to ATATCC, for which the binding signal came to 2.59.

CGCCTG yielded a binding signal of 1.11.

For TATAGG, the binding signal amounted to 1.14.

CTATAG displayed a binding signal of 1.09.

CTGTTC gave a binding signal of 1.47.

As to CCATCC, the binding signal was 1.24.

Take CCCATA: the binding signal came out at 1.23.

The target in the next experiment is ETV5 (UniProt P41161). The experiment is described as above. The conditions noted are these: 10 mM Tris-HCl pH 7.5, 50 mM NaCl, 1 mM DTT, 4% glycerol, room temperature, 30 min; GST-TFs on glutathione beads, 16-mer random dsDNA library, 0.1% …; high values mean tight binding; double strand, one strand shown; scale: fold enrichment (6-mer frequency, TF over GST control).
Take GCCCTA: the binding signal stood at 1.16.

GTAATC registered a binding signal of 1.22.

Turning to TTCCGA, the binding signal was 1.57.

Consider CCCCGA, for which the binding signal turned out to be 1.14.

For GTCCCG, the binding signal worked out at 1.19.

Take CGCTTG: the binding signal stood at 1.06.

For CTGATG, the binding signal came out at 1.65.

Take TGTCAT: the binding signal was 1.18.

In the case of GCGCTT, the binding signal worked out at 1.29.

Sequence AATATC registered a binding signal of 1.53.

As for TGATAT, the binding signal came out at 1.1.

CTCTAC registered a binding signal of 1.33.

TCACTG registered a binding signal of 1.15.

As for TGCTAG, the binding signal was found to be 1.3.

As to ACCCCT, the binding signal is 0.972.

CTCGGT displayed a binding signal of 1.1.

Sequence ATCGAC came in with a binding signal of 1.25.

Regarding GCACAA, the binding signal was 1.07.

For TACTGT, the binding signal turned out to be 1.15.

TGTTTC registered a binding signal of 1.83.

In the case of CTGTCT, the binding signal was determined as 1.4.

Consider TCTTTT, for which the binding signal was 1.4.

ATATCC returned a binding signal of 2.97.

The sequence CCACCC yielded a binding signal of 1.25.

On to GCTAGT, for which the binding signal was 0.995.

On to ACGGAT, for which the binding signal worked out at 1.32.

Regarding ATAGTT, the binding signal worked out at 1.25.

For CTCCCT, the binding signal came out at 1.73.

GCGCCT: the binding signal was 1.07.

As to CGCCTG, the binding signal is 1.18.

TATAGG yielded a binding signal of 1.24.

As to CTATAG, the binding signal was found to be 1.1.

Turning to CTAACC, the binding signal was 1.19.

CTACCC had a binding signal of 1.28.

Sequence TGATTC showed a binding signal of 1.1.

Sequence CTGTTC registered a binding signal of 1.39.

Sequence ATATTT registered a binding signal of 1.54.

ACAGCC displayed a binding signal of 0.998.

The sequence CCATCC yielded a binding signal of 1.27.

CCCATA yielded a binding signal of 1.23.

Values taken from article PMC7862700.
